Our source for the cell viability values is the supplement of paper PMC11150407.

Values joined by “and” are separate entries in the source; they are usually repeats but may differ in a detail not shown here. Equal entries are not always repeated. Structures can show the parent of a compound that is named as a salt. About 180 (8.6%) of roughly 2,100 compounds showed an effect of 50% or more. This is one part of the list.

The test relates to MOLM1 and UCSD/AML1 (averaged). Put plainly: cell viability relative to DMSO control (POC); higher = less growth inhibition. Conditions: 1 µM; 72 h. On the procedure: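 Primary viability screen in the 3q26 EVI1-high AML cell lines MOLM1 and UCSD/AML1 (1.5e3 cells/well, 384-well), compounds at 1 uM for 72 h. ATP CellTiter-Glo read-out given as percent of viable cells over DMSO control (POC), averaged over duplicates. DMSO was the negative control and 5 uM etoposide the positive control. This mapping covers the MicroSource Spectrum and Selleck anticancer libraries (drug names).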
Turning to `Cc1cnc(NC(=O)Nc2cc(Br)c(C)cc2OC[C@@H]2CNCCO2)cn1`, the cell viability came to 46.1%.

For `O=C(O)c1cc(=O)c2ccccc2[nH]1`, the cell viability is 108%.

In the case of `CCCCCCCCCCCC[C@@H](C(=O)O)[C@H](C)C(=O)O`, the cell viability was 96%.

Consider `Cc1c(C(=O)Nc2ccc(N3C[C@@H](C)O[C@@H](C)C3)nc2)cccc1-c1ccc(OC(F)(F)F)cc1` [LDE225 (NVP-LDE225, Erismodegib)], for which the cell viability amounted to 94.6%.

`Nc1cc(C(F)(F)F)c(-c2cc(N3CCOCC3)nc(N3CCOCC3)n2)cn1`: the cell viability amounted to 26.9%.

On to `O=C1c2cccc(O)c2C(=O)c2c(O)cccc21`, for which the cell viability stood at 104%.

Regarding `CCOC(N)=O`, the cell viability worked out at 108%.

Regarding `O=c1cc(N2CCOCC2)oc2c(-c3ccccc3)cccc12`, the cell viability came to 73.8%.

As to `C[C@H]1[C@H](C)CC[C@]2(C(=O)O)CC[C@]3(C)C(=CC[C@@H]4[C@@]5(C)C[C@@H](O)[C@H](O)[C@@](C)(CO)[C@@H]5[C@H](O)C[C@]43C)[C@H]12`, the cell viability came to 86.8%.

For the compound `N[C@@H](Cc1ccc(O)c(O)c1)C(=O)O`, the cell viability worked out at 106%.

Regarding `CN1CCN2c3ccccc3Cc3ccccc3C2C1` (stereo not given), the cell viability came out at 102%.

Consider `COc1cc(/C=C/CO)ccc1O`, for which the cell viability was found to be 87.7%.

Turning to `COc1cc(O)cc(OC)c1OC`, the cell viability is 95.9%.

For `O=C(NC(Cc1cc(=O)[nH]c2ccccc12)C(=O)O)c1ccc(Cl)cc1` (stereo not given), the cell viability was determined as 110%.

In the case of `COC(=O)[C@H]1[C@H]2C[C@H]3c4[nH]c5cc(OC)ccc5c4CCN3C[C@H]2C[C@@H](OC(=O)c2cc(OC)c(OC)c(OC)c2)[C@@H]1OC`, the cell viability was found to be 111%.

Regarding `CC(C)(C)NC[C@H](O)COc1cccc2c1CCCC2=O`, the cell viability stood at 95.7%.

`C[N+](C)(C)CCOC(N)=O`: the cell viability stood at 107%.

`C[C@H](CCC(=O)O)[C@H]1CC[C@H]2[C@@H]3C(=O)C[C@@H]4CC(=O)CC[C@]4(C)[C@H]3CC(=O)[C@]12C`: the cell viability is 96.7% and 105%.

In the case of `CO[C@H]1C[C@H](O[C@@H]2/C(C)=C/C[C@@H]3C[C@@H](C[C@]4(CC[C@H](C)[C@@H](C5CCCCC5)O4)O3)OC(=O)[C@@H]3C=C(C)/C(=N/O)[C@H]4OC/C(=C\C=C\[C@@H]2C)[C@]43O)O[C@@H](C)[C@@H]1O`, the cell viability was 101%.

Consider `Cc1nc2sccn2c(=O)c1CCN1CCC(=C(c2ccc(F)cc2)c2ccc(F)cc2)CC1`, for which the cell viability came out at 87.6%.

`O=C1c2c(O)ccc(O)c2C(=O)c2c(NCCNCCO)ccc(NCCNCCO)c21` [Mitoxantrone Hydrochloride]: the cell viability turned out to be 2.15%.

As to `O=C1c2c(O)ccc(O)c2C(=O)c2c(NCCNCCO)ccc(NCCNCCO)c21`, the cell viability was found to be 8.27%.

As for `C[C@@](Cc1ccc(O)c(O)c1)(NN)C(=O)O`, the cell viability was 95.6%.

With `O=c1[nH]cnc2nc[nH]c12`, the cell viability was found to be 102%.

For `Nc1ncnc2c1ncn2[C@@H]1O[C@H](CO)[C@@H](O)[C@@H]1O`, the cell viability came to 93.9%.

As to `COc1cc(Nc2c(C#N)cnc3cc(OCCCN4CCN(C)CC4)c(OC)cc23)c(Cl)cc1Cl` [Bosutinib (SKI-606)], the cell viability turned out to be 21.3%.

`N#Cc1ccc2c(c1)N(CCCN1CCC(O)CC1)c1ccccc1S2`: the cell viability worked out at 109%.

Regarding `CCC1(c2ccccc2)C(=O)NCNC1=O`, the cell viability turned out to be 97.5%.

Turning to `CC(C)CC(NC(=O)OCC1c2ccccc2-c2ccccc21)C(=O)O` (stereo in doubt), the cell viability was found to be 105%.

Regarding `c1ccc(-c2ccc(C(c3ccccc3)n3ccnc3)cc2)cc1` (stereo not given), the cell viability is 96.7%.

Take `Oc1c(Cl)cc(Cl)c2cccnc12`: the cell viability worked out at 100%.

Consider `CN(C)CCC(c1ccc(Br)cc1)c1ccccn1` (stereo not given), for which the cell viability came to 94.8%.

For `CC(C)NCC(O)COc1ccc(CC(N)=O)cc1` (stereo not given), the cell viability was 99.5%.

With `NC(Cn1ccc(=O)c(O)c1)C(=O)O` (stereo not given), the cell viability came to 92.7%.

In the case of `CN1CCN(CC(=O)N2c3ccccc3C(=O)Nc3cccnc32)CC1`, the cell viability came to 95.2%.

Take `Cc1ccc([C@@H]2O[C@H](CO)[C@@H](O)[C@H](O)[C@H]2O)cc1Cc1ccc(-c2ccc(F)cc2)s1` [Canagliflozin]: the cell viability was 91%.

As for `COC(=O)Nc1nc2cc(Sc3ccccc3)ccc2[nH]1`, the cell viability came to 41.9%.

As for `Oc1cc2c(cc1O)C(c1ccccc1)CNCC2` (stereo not given), the cell viability was 104%.

Consider `Cc1cnc(Nc2ccc(OCCN3CCCC3)cc2)nc1Nc1cccc(S(=O)(=O)NC(C)(C)C)c1`, for which the cell viability was found to be 13%.

Consider `CCN(CC)C(C)CN1c2ccccc2Sc2ccccc21` (stereo not given), for which the cell viability was 99.7%.

Regarding `CCCNC(=O)NS(=O)(=O)c1ccc(Cl)cc1`, the cell viability came to 101%.

Regarding `CC(=O)O[C@]1(C(C)=O)CC[C@H]2[C@@H]3C=C(Cl)C4=CC(=O)CC[C@]4(C)[C@H]3CC[C@@]21C`, the cell viability came out at 90.3%.

Consider `Clc1cccc(Cl)c1NC1=NCCN1`, for which the cell viability was 103%.

Consider `CO[C@H]1/C=C/O[C@@]2(C)Oc3c(C)c(O)c4c(O)c(c5c(nc6cc(C)ccn65)c4c3C2=O)NC(=O)/C(C)=C\C=C\[C@H](C)[C@H](O)[C@@H](C)[C@@H](O)[C@@H](C)[C@H](OC(C)=O)[C@@H]1C`, for which the cell viability came to 106%.

On to `CCCCCCCCCCCCCCCC(=O)OC[C@H](O)[C@H]1OC(=O)C(O)=C1O`, for which the cell viability was found to be 99.4%.

Consider `CC(=O)OC/C=C(\C)CC/C=C(\C)CC/C=C(\C)CC/C=C(\C)CC/C=C(\C)CC/C=C(\C)CC/C=C(\C)CC/C=C(\C)CCC=C(C)C`, for which the cell viability worked out at 106%.

As for `COc1c(C)cnc(Cn2cnc3c(Cl)nc(N)nc32)c1C`, the cell viability was determined as 4.8%.

With `CN(C)C(=N)NC(=N)N`, the cell viability is 95.2%.

Consider `NCCCCCC(=O)O`, for which the cell viability was found to be 96.4%.

On to `c1ccc2c(CCNc3ccc(Nc4ccncc4)cc3)c[nH]c2c1`, for which the cell viability turned out to be 43.4%.

Consider `CNCCc1ccccn1`, for which the cell viability was 102%.

Regarding `CC1CC2C3CCC4=CC(=O)C=CC4(C)C3(F)C(O)CC2(C)C1C(=O)CO` (stereo not given), the cell viability amounted to 61.4%.

In the case of `CC=CC(=O)N(CC)c1ccccc1C`, the cell viability was 56.3%.

Take `CC(=O)[C@@]1(O)CC[C@H]2[C@@H]3CCC4=CC(=O)CC[C@]4(C)[C@H]3CC[C@@]21C`: the cell viability is 105%.

Turning to `Nc1nccc(Oc2ccc(NC(=O)c3c[nH]cc(-c4ccc(F)cc4)c3=O)cc2F)c1Cl`, the cell viability amounted to 83.2%.

With `NC(=O)Nc1cc(-c2cccc(F)c2)sc1C(=O)N[C@H]1CCCNC1`, the cell viability was 5.84%.

Turning to `C[C@H]1[C@H](C)CC[C@]2(C(=O)O)CC[C@]3(C)C(=CC[C@@H]4[C@@]5(C)CC[C@H](O)C(C)(C)[C@@H]5CC[C@]43C)[C@H]12`, the cell viability was 95.9%.

For the compound `NC1(C(=O)O)CC1`, the cell viability amounted to 95.2%.

Regarding `Oc1cc2c(cc1O)C1c3ccc(O)c(O)c3OCC1(O)C2` (stereo not given), the cell viability was determined as 103%.

For `CCN(CC)C(=O)c1ccc(O)c(OC)c1`, the cell viability stood at 95.6%.

Regarding `CSCC[C@H](NC=O)C(=O)N[C@@H](Cc1ccccc1)C(=O)O`, the cell viability was found to be 105%.

Consider `CC(=O)O[C@@H]1C[C@H]2C(C)(C)C(=O)C=C[C@]2(C)[C@H]2CC[C@@]3(C)[C@H](c4ccoc4)OC(=O)[C@H]4O[C@]43[C@@]21C`, for which the cell viability stood at 82.8%.

Regarding `Cc1cc2nc3c(=O)[nH]c(=O)nc-3n(C[C@H](O)[C@H](O)[C@H](O)CO)c2cc1C`, the cell viability was 105%.

Take `CN(C)CCOC(c1ccccc1)c1ccccc1.Cn1c(=O)c2[nH]c(Cl)nc2n(C)c1=O`: the cell viability was determined as 113%.

Turning to `C[C@@H]1CC[C@@]23CCC4(C)[C@@](C=CC5[C@@]6(C)CC[C@H](O)C(C)(C)C6CC[C@]54C)(OC2=O)C3[C@H]1C` (stereo not given in full), the cell viability is 90.8%.

As to `COc1cc(C)c(C(=O)Oc2cc(C)c(C(=O)O)c(O)c2C)c(OC)c1C`, the cell viability is 109%.

For the compound `O=C1NCC2(CCN(CCc3ccccc3)CC2)O1`, the cell viability came out at 102%.

As for `Clc1ccc2c(c1)CCc1cccnc1C2=C1CCNCC1`, the cell viability worked out at 98.9%.

Consider `CCCCCCNC(=O)n1cc(F)c(=O)[nH]c1=O`, for which the cell viability came to 88.6%.

Turning to `CCCCCCNC(=O)n1cc(F)c(=O)[nH]c1=O` [Carmofur], the cell viability was determined as 103%.

`COc1ccc(Cl)cc1C(=O)NCCc1ccc(S(=O)(=O)NC(=O)NC2CCCCC2)cc1`: the cell viability was found to be 107%.

`CC[C@@H]1C(=O)N(C)c2cnc(Nc3ccc(C(=O)N[C@H]4CC[C@H](N5CCN(CC6CC6)CC5)CC4)cc3OC)nc2N1C(C)C` [BI6727 (Volasertib)]: the cell viability turned out to be 14.5%.

As to `CC#C[C@]1(O)CC[C@H]2[C@@H]3CCC4=CC(=O)CCC4=C3[C@@H](c3ccc(N(C)C)cc3)C[C@@]21C` [Mifepristone (Mifeprex)], the cell viability is 90%.

`O=C(O)C1=CC(=C(c2ccc(O)c(C(=O)O)c2)c2ccc(O)c(C(=O)O)c2)C=CC1=O`: the cell viability came to 109%.

On to `C[C@@H]1C/C=C/C=C/C=C/C=C/[C@H](O[C@@H]2O[C@H](C)[C@@H](O)[C@H](N)[C@@H]2O)C[C@@H]2O[C@](O)(C[C@@H](O)C[C@H]3O[C@@H]3/C=C/C(=O)O1)C[C@H](O)[C@H]2C(=O)O`, for which the cell viability is 96.4%.

For the compound `NCCC(=O)N[C@@H](Cc1c[nH]cn1)C(=O)O`, the cell viability is 89.7%.

Consider `CC1(C)O[C@@H]2C[C@H]3[C@@H]4C[C@H](F)C5=CC(=O)C=C[C@]5(C)[C@@]4(F)[C@@H](O)C[C@]3(C)[C@]2(C(=O)CO)O1`, for which the cell viability amounted to 71.2%.

Take `CC(C)=CCc1c2c(c3occ(-c4ccc(O)c(O)c4)c(=O)c3c1O)C=CC(C)(C)O2`: the cell viability amounted to 109%.

`COc1cc(NS(=O)(=O)c2ccc(N)cc2)ncn1`: the cell viability came to 97%.

As for `Cc1cc(C)nc(NS(=O)(=O)c2ccc(N)cc2)n1`, the cell viability came out at 97.6%.

Take `CN(C(=O)CN(CCO)CC(=O)N(C)C(C)(C)Cc1ccccc1)C(C)(C)Cc1ccccc1`: the cell viability was 97.7%.

On to `CCOC(=O)Nc1nc2ccccc2[nH]1`, for which the cell viability stood at 103%.

For `CC(C)(C)c1cc(NC(=O)Nc2ccc(-c3cn4c(n3)sc3cc(OCCN5CCOCC5)ccc34)cc2)no1` [Quizartinib (AC220)], the cell viability was determined as 50.9%.

With `COc1ccc(-c2oc3cc(OC)c(OC)c(OC)c3c(=O)c2OC)cc1OC`, the cell viability was found to be 101%.

Take `NC[C@H]1O[C@H](O[C@H]2[C@H](O)[C@@H](O[C@H]3O[C@H](CO)[C@@H](O)[C@H](N)[C@H]3O)[C@H](N)C[C@@H]2N)[C@H](N)C[C@@H]1O`: the cell viability is 122%.

On to `O=C(/C=C/c1cccc(S(=O)(=O)Nc2ccccc2)c1)NO` [Belinostat (PXD101)], for which the cell viability came to 1.86%.

Regarding `CC(C)(CO)[C@@H](O)C(=O)NCCC(=O)O` [PANTOTHENIC ACID(d) Na salt], the cell viability is 111%.

On to `Cc1cc(C(C)(C)C)cc(C)c1CC1=NCCN1`, for which the cell viability stood at 92.2%.

Take `CCN(CCCCOC(=O)c1ccc(OC)c(OC)c1)C(C)Cc1ccc(OC)cc1` (stereo not given): the cell viability was 95.1%.

`CCN(CC)CCOCCOC(=O)C1(c2ccccc2)CCCC1`: the cell viability amounted to 102%.
